Legend:
Parameters in all cases: key: The presence of phosphopeptides in previously analyzed samples including leukemia, colorectal cancer, melanoma, ovarian cancer, breast cancer, and esophageal cancer is indicated by ✓
[1] = system: leukemia; assay: Presence of the phosphopeptide in previously analyzed leukemia samples
[2] = system: melanoma; assay: Presence of the phosphopeptide in previously analyzed melanoma samples
[3] = system: colorectal cancer; assay: Presence of the phosphopeptide in previously analyzed colorectal cancer samples

Q: How did the Leukemia [1] turn out when “157 (RPRDTRRISL; (5)...(5) The amino acid at this position is optionally phosphorylated; listed as Homo sapiens) [compound 157]” was run?
A: ✓

Q: How did the Leukemia [1] turn out when “312 (KTPTSPLKMK; (5)...(5) The amino acid at this position is optionally phosphorylated; listed as Homo sapiens) [compound 312]” was run?
A: ✓

Q: And the Melanoma [2]?
A: ✓

Q: “190 (RPSSPALYF; (4)...(4) The amino acid at this position is optionally phosphorylated; listed as Homo sapiens) [compound 190]” was tested. Which Leukemia [1] did it give?
A: ✓

Q: “173 (RPRSMTVSA; (4)...(4) The amino acid at this position is optionally phosphorylated; listed as Homo sapiens) [compound 173]” was tested. Which Colorectal [3] did it give?
A: ✓

Q: And the Leukemia [1]?
A: ✓

Q: With “179 (RPRSPPSSP; (4)...(4) The amino acid at this position is optionally phosphorylated; listed as Homo sapiens) [compound 179]” as the substance, how does the Leukemia [1] read?
A: ✓

Q: And the Melanoma [2]?
A: ✓

Q: Which Leukemia [1] does the source give for “431 (RTSSFALNL; (4)...(4) The amino acid at this position is optionally phosphorylated; listed as Homo sapiens) [compound 431]” here?
A: ✓

Q: And the Melanoma [2]?
A: ✓

Q: How did the Leukemia [1] turn out when “175 (RPRSPAARL; (4)...(4) The amino acid at this position is optionally phosphorylated; listed as Homo sapiens) [compound 175]” was run?
A: ✓

Q: “342 (EELSPTAKF; (4)...(4) The amino acid at this position is optionally phosphorylated; listed as Homo sapiens) [compound 342]” was tested. Which Colorectal [3] did it give?
A: ✓

Q: What about the Leukemia [1] of the same substance?
A: ✓

Q: What does the source list for “214 (SPSSPSVRRQL; (4)...(4) The amino acid at this position is optionally phosphorylated; listed as Homo sapiens) [compound 214]”?
A: Leukemia [1]: ✓; Melanoma [2]: ✓

Q: Which results are given for “45 (RQASIELPSM; (4)...(4) The amino acid at this position is optionally phosphorylated; listed as Homo sapiens) [compound 45]”?
A: Colorectal [3]: ✓; Leukemia [1]: ✓

Q: How did the Leukemia [1] turn out when “207 (SPGLARKRSL; (9)...(9) The amino acid at this position is optionally phosphorylated; listed as Homo sapiens) [compound 207]” was run?
A: ✓

Q: What does the source list for “317 (RIYQYIQ; (5)...(5) The amino acid at this position is optionally phosphorylated; listed as Homo sapiens) [compound 317]”?
A: Colorectal [3]: ✓; Melanoma [2]: ✓

Q: For “336 (SVRRSVLMK; (5)...(5) The amino acid at this position is optionally phosphorylated; listed as Homo sapiens) [compound 336]”, which Colorectal [3] is on record?
A: ✓

Q: And the Melanoma [2]?
A: ✓

Q: For “151 (RPPSPGPVL; (4)...(4) The amino acid at this position is optionally phosphorylated; listed as Homo sapiens) [compound 151]”, which Leukemia [1] is on record?
A: ✓

Q: What about the Melanoma [2] of the same substance?
A: ✓

Q: “93 (GPRSASLLSL; (6)...(6) The amino acid at this position is optionally phosphorylated; listed as Homo sapiens) [compound 93]” was tested. Which Leukemia [1] did it give?
A: ✓

Q: Which results are given for “123 (RPAFFSPSL; (6)...(6) The amino acid at this position is optionally phosphorylated; listed as Homo sapiens) [compound 123]”?
A: Leukemia [1]: ✓; Melanoma [2]: ✓

Q: “350 (KEMSPTRQL; (4)...(4) The amino acid at this position is optionally phosphorylated; listed as Homo sapiens) [compound 350]” was tested. Which Colorectal [3] did it give?
A: ✓

Q: And the Melanoma [2]?
A: ✓

Q: With “411 (KLSGLSF; (5)...(5) The amino acid at this position is optionally phosphorylated; listed as Homo sapiens) [compound 411]” as the substance, how does the Leukemia [1] read?
A: ✓

Q: How did the Colorectal [3] turn out when “301 (GIMSPLAKK; (4)...(4) The amino acid at this position is optionally phosphorylated; listed as Homo sapiens) [compound 301]” was run?
A: ✓

Q: What about the Leukemia [1] of the same substance?
A: ✓

Q: How did the Colorectal [3] turn out when “263 (RRLSADIRL; (4)...(4) The amino acid at this position is optionally phosphorylated; listed as Homo sapiens) [compound 263]” was run?
A: ✓

Q: What about the Melanoma [2] of the same substance?
A: ✓

Q: With “184 (RPRSPTGPSNSF; (6)...(6) The amino acid at this position is optionally phosphorylated; listed as Homo sapiens) [compound 184]” as the substance, how does the Colorectal [3] read?
A: ✓

Q: And the Melanoma [2]?
A: ✓

Q: Which results are given for “145 (RPKSVDFDSL; (4)...(4) The amino acid at this position is optionally phosphorylated; listed as Homo sapiens) [compound 145]”?
A: Colorectal [3]: ✓; Melanoma [2]: ✓

Q: What does the source list for “227 (FRRSPTKSSLDY; (4)...(4) The amino acid at this position is optionally phosphorylated; listed as Homo sapiens) [compound 227]”?
A: Colorectal [3]: ✓; Leukemia [1]: ✓

Q: What does the source list for “100 (KPRPPPLSP; (8)...(8) The amino acid at this position is optionally phosphorylated; listed as Homo sapiens) [compound 100]”?
A: Colorectal [3]: ✓; Melanoma [2]: ✓

Q: Which Leukemia [1] does the source give for “98 (KPPYRSHSL; (8)...(8) The amino acid at this position is optionally phosphorylated; listed as Homo sapiens) [compound 98]” here?
A: ✓

Q: How did the Colorectal [3] turn out when “178 (RPRSPPPRAP; (4)...(4) The amino acid at this position is optionally phosphorylated; listed as Homo sapiens) [compound 178]” was run?
A: ✓

Q: What about the Melanoma [2] of the same substance?
A: ✓

Q: What does the source list for “240 (KRMSPKPEL; (4)...(4) The amino acid at this position is optionally phosphorylated; listed as Homo sapiens) [compound 240]”?
A: Colorectal [3]: ✓; Melanoma [2]: ✓

Q: “333 (RVRQSPLATR; (5)...(5) The amino acid at this position is optionally phosphorylated; listed as Homo sapiens) [compound 333]” was tested. Which Colorectal [3] did it give?
A: ✓

Q: And the Melanoma [2]?
A: ✓

Q: “225 (FRRSPTKSSL; (4)...(4) The amino acid at this position is optionally phosphorylated; listed as Homo sapiens) [compound 225]” was tested. Which Colorectal [3] did it give?
A: ✓

Q: And the Leukemia [1]?
A: ✓

Q: For “313 (KVQSLRRAL; (4)...(4) The amino acid at this position is optionally phosphorylated; listed as Homo sapiens) [compound 313]”, which Colorectal [3] is on record?
A: ✓

Q: And the Melanoma [2]?
A: ✓

Q: What does the source list for “335 (SVKSPVTVK; (4)...(4) The amino acid at this position is optionally phosphorylated; listed as Homo sapiens) [compound 335]”?
A: Colorectal [3]: ✓; Melanoma [2]: ✓

Q: “226 (FRRSPTKSSLD; (4)...(4) The amino acid at this position is optionally phosphorylated; listed as Homo sapiens) [compound 226]” was tested. Which Colorectal [3] did it give?
A: ✓

Q: What about the Leukemia [1] of the same substance?
A: ✓

Q: For “220 (VPRSPKHAHSSSL; (4)...(4) The amino acid at this position is optionally phosphorylated; listed as Homo sapiens) [compound 220]”, which Colorectal [3] is on record?
A: ✓

Q: What about the Leukemia [1] of the same substance?
A: ✓

Q: Which Colorectal [3] does the source give for “384 (RADSPVHM; (4)...(4) The amino acid at this position is optionally phosphorylated; listed as Homo sapiens) [compound 384]” here?
A: ✓

Q: And the Leukemia [1]?
A: ✓

Q: With “235 (KRFSFKKSF; (4)...(4) The amino acid at this position is optionally phosphorylated; listed as Homo sapiens) [compound 235]” as the substance, how does the Colorectal [3] read?
A: ✓

Q: What about the Melanoma [2] of the same substance?
A: ✓

Q: How did the Colorectal [3] turn out when “170 (RPRSISVEEF; (4)...(4) The amino acid at this position is optionally phosphorylated; listed as Homo sapiens) [compound 170]” was run?
A: ✓

Q: And the Melanoma [2]?
A: ✓

Q: “154 (RPRAATVVA; (6)...(6) The amino acid at this position is optionally phosphorylated; listed as Homo sapiens) [compound 154]” was tested. Which Colorectal [3] did it give?
A: ✓

Q: And the Leukemia [1]?
A: ✓

Q: With “392 (RAHSEPLAL; (4)...(4) The amino acid at this position is optionally phosphorylated; listed as Homo sapiens) [compound 392]” as the substance, how does the Leukemia [1] read?
A: ✓

Q: Which Colorectal [3] does the source give for “277 (RRSSFLQVF; (4)...(4) The amino acid at this position is optionally phosphorylated; listed as Homo sapiens) [compound 277]” here?
A: ✓

Q: And the Melanoma [2]?
A: ✓

Q: “171 (RPRSLEVTI; (4)...(4) The amino acid at this position is optionally phosphorylated; listed as Homo sapiens) [compound 171]” was tested. Which Leukemia [1] did it give?
A: ✓

Q: For “370 (YEGSPIKV; (4)...(4) The amino acid at this position is optionally phosphorylated; listed as Homo sapiens) [compound 370]”, which Leukemia [1] is on record?
A: ✓

From patent US20190374627A1, “TARGET PEPTIDES FOR CANCER THERAPY AND DIAGNOSTICS” (priority 2016, published 2019)
